# Values quoted from earlier work in patent EP0970199B1, “FLUORESCENT PROTEIN SENSORS FOR DETECTION OF ANALYTES” (The Regents of the University of California, priority 1997, dated 1998).
# At least one structure is not confirmed: it was looked up by name or label, or the drawing left a doubt.
# Conditions: fluorescein in 0.1 N NaOH; 9-aminoacridine in water
smiles,measurement,value
O=C1OC2(c3ccc(O)cc3Oc3cc(O)ccc32)c2ccccc21 [fluorescein],quantum yield of standard,0.91
